The list shows only some results of the screen, not a fair sample: it is rich in T/C values a quarter to a half above the control, in often repeated tests (any T/C) and in doses without a T/C. Other doses and runs of a compound stand elsewhere. T/C gives the treated animals as a percentage of the vehicle group. Schedules are NCI's codes, read here as Q, the interval in days (D) or hours (H), X, the number of doses. Some T/C values carry the count of animals alive at the toxicity check (mostly the fifth day); without a count, all were alive then. Some doses were run more than once; the values are given in rising order. Some schedule codes hold Z or #, which are not explained here. Some doses have a count of surviving animals in place of a T/C: the source files T/C as zero there, which appears to mark a toxic dose or a test without result, not a measured value. Counts of survivors are from the toxicity check (mostly the fifth day) where no day follows; animals may have died later.
Tested on: Swiss mice, Sarcoma 180 sc, mean tumor weight T/C
Assay: NCI In Vivo Anticancer Drug Screen. Data for tumor model Sarcoma 180 (subcutaneous) in Swiss mice
Settings: T/C endpoint: mean tumor weight, higher T/C = larger tumour; for T/C: evaluated on day 8
Protocol: The antitumor activity of compounds was measured in mice bearing transplantable tumors. Survival or tumor size were measured and the results are expressed as the measurement made in the treated group (T) divided by the measurement made in the vehicle treated control group (C). The tumor model used in this assay is Sarcoma 180 (subcutaneous) in Swiss mice

[1] = dose: 5.0 mg/kg/injection, schedule: Q#A X014 (ip), vehicle: methylcellulose (MC)
[2] = dose: 1000.0 mg/kg/injection, schedule: Q01DX007 (sc), vehicle: steroid suspending solution
[3] = dose: 8.0 mg/kg/injection, schedule: Q01DX007 (ip), vehicle: carboxymethylcellulose (CMC)
[4] = dose: 150.0 mg/kg/injection, schedule: Q01DX007 (ip), vehicle: carboxymethylcellulose (CMC)
[5] = dose: 220.0 mg/kg/injection, schedule: Q01DX007 (ip), vehicle: carboxymethylcellulose (CMC)
[6] = dose: 50.0 mg/kg/injection, schedule: Q#A X014 (ip), vehicle: carboxymethylcellulose (CMC)
[7] = dose: 1.25 mg/kg/injection, schedule: Q#A X014 (ip), vehicle: methylcellulose (MC)
[8] = dose: 2.5 mg/kg/injection, schedule: Q#A X014 (ip), vehicle: methylcellulose (MC)
[9] = dose: 3.75 mg/kg/injection, schedule: Q#A X014 (ip), vehicle: methylcellulose (MC)

Cn1cnc([N+](=O)[O-])c1Sc1nc(N)nc2nc[nH]c12
survivor count (dose: 2.0 mg/kg/injection, schedule: Q#A X014 (ip), vehicle: methylcellulose (MC)): 3 of 6
survivor count [1]: 3 of 6

CC(=O)Nc1cc2c(cc1Br)-c1ccccc1C2O (centres undefined)
survivor count (dose: 296.0 mg/kg/injection, schedule: Q01DX007 (ip), vehicle: saline): 1 of 6

C[C@]12C=CC(=O)C=C1CC[C@@H]1[C@@H]2CC[C@]2(C)OC(=O)CC[C@@H]12
T/C (dose: 125.0 mg/kg/injection, schedule: Q01DX007 (sc), vehicle: steroid suspending solution): 135 and 139 % of control
T/C [2]: 139 % of control [8 of 10 alive]
survivor count [2]: 5 of 10

O=C(O)CCc1c[nH]c2ccc(N(CCCl)CCCl)cc12
survivor count [3]: 3 of 6
survivor count (dose: 15.0 mg/kg/injection, schedule: Q01DX007 (ip), vehicle: carboxymethylcellulose (CMC)): 0 of 6

O=C(O)c1ccc(N=NSc2ncnc3nc[nH]c23)cc1O
survivor count [3]: 2 of 6

Cc1cc(N)c2cc(NC(=O)/C=C\c3ccccc3Cl)ccc2n1
survivor count (dose: 38.0 mg/kg/injection, schedule: Q01DX007 (ip), vehicle: carboxymethylcellulose (CMC)): 1 of 6

[Cl][Pt+2]([Cl])([Cl])[Cl].[Na+].[S-]c1ncnc2nc[nH]c12.[S-]c1ncnc2nc[nH]c12
survivor count [4]: 2 of 6
survivor count [5]: 0 of 6
survivor count (dose: 330.0 mg/kg/injection, schedule: Q01DX007 (ip), vehicle: carboxymethylcellulose (CMC)): 0 of 6
survivor count (dose: 336.0 mg/kg/injection, schedule: Q01DX007 (ip), vehicle: carboxymethylcellulose (CMC)): 1 of 6
survivor count (dose: 500.0 mg/kg/injection, schedule: Q01DX007 (ip), vehicle: carboxymethylcellulose (CMC)): 2 of 6

Oc1ccccc1C(Nc1nc2ccccc2s1)c1ccc2cccnc2c1O (centres undefined)
survivor count (dose: 500.0 mg/kg/injection, schedule: Q01DX007 (ip), vehicle: other): 0 of 6

COc1ccc(C[C@H](N)C(=O)NC2C(CO)OC(n3cnc4c(N(C)C)ncnc43)C2O)cc1 (some centres undefined)
T/C (dose: 25.0 mg/kg/injection, schedule: Q#A X014 (ip), vehicle: carboxymethylcellulose (CMC)): 128 % of control [5 of 6 alive]
survivor count [6]: 3 of 6

O=c1[nH]c(=O)c2n[nH]nc2[nH]1
T/C (dose: 1.0 mg/kg/injection, schedule: Q#A X014 (ip), vehicle: carboxymethylcellulose (CMC)): 127 % of control [5 of 6 alive]
T/C (dose: 4.0 mg/kg/injection, schedule: Q#A X014 (ip), vehicle: carboxymethylcellulose (CMC)): 139 % of control

Nc1c(Br)cc2c(c1Br)Cc1cc([N+](=O)[O-])ccc1-2
survivor count (dose: 222.0 mg/kg/injection, schedule: Q01DX007 (ip), vehicle: carboxymethylcellulose (CMC)): 1 of 6
survivor count (dose: 375.0 mg/kg/injection, schedule: Q#A X014 (ip), vehicle: saline): 1 of 6

CCCCC(=O)OCC1OC(n2cnc3c(=S)nc[nH]c32)C(OC(=O)CCCC)C1OC(=O)CCCC (centres undefined)
survivor count (dose: 175.0 mg/kg/injection, schedule: Q01DX007 (ip), vehicle: carboxymethylcellulose (CMC)): 3 of 6
survivor count [5]: 3 of 6
survivor count (dose: 335.0 mg/kg/injection, schedule: Q01DX007 (ip), vehicle: carboxymethylcellulose (CMC)): 2 of 6
survivor count (dose: 750.0 mg/kg/injection, schedule: Q01DX007 (ip), vehicle: carboxymethylcellulose (CMC)): 0 of 6

S=C(N=Nc1ccccc1)NNc1ccccc1
survivor count [4]: 3 of 7
survivor count (dose: 300.0 mg/kg/injection, schedule: Q01DX007 (ip), vehicle: carboxymethylcellulose (CMC)): 1 of 7

Cc1ccccc1N(C=O)c1ccccc1C
T/C (dose: 50.0 mg/kg/injection, schedule: Q01DX007 (ip), vehicle: methylcellulose (MC)): 147 % of control
T/C (dose: 250.0 mg/kg/injection, schedule: Q01DX007 (ip), vehicle: methylcellulose (MC)): 126 and 136 % of control [5 of 6 alive]
survivor count (dose: 500.0 mg/kg/injection, schedule: Q01DX007 (ip), vehicle: methylcellulose (MC)): 2 of 6

CCN(CC)CCNc1ccc(C)c2sc3ccccc3c(=O)c12
survivor count (dose: 100.0 mg/kg/injection, schedule: Q#A X014 (ip), vehicle: carboxymethylcellulose (CMC)): 1 of 6

NC(Cc1ccc(N(CCCl)CCCl)cc1)C(=O)O (centres undefined)
survivor count (dose: 6.5 mg/kg/injection, schedule: Q01DX007 (ip), vehicle: carboxymethylcellulose (CMC)): 6 of 10

N=[N+]=CC(=O)OCC(N)C(=O)O (centres undefined)
T/C (dose: 0.25 mg/kg/injection, schedule: Q#A X014 (ip), vehicle: methylcellulose (MC)): 46 [5 of 6 alive], 61, 72, 75, 77, 80, 83, 85, 86, 87, 89, 92, 94 % of control
T/C (dose: 0.5 mg/kg/injection, schedule: Q#A X014 (ip), vehicle: methylcellulose (MC)): 43, 48 [6 of 7 alive], 52, 57 [6 of 7 alive], 64 [4 of 6 alive], 70 [6 of 7 alive], 73, 75, 84, 85, 89, 91, 120 % of control
T/C [7]: 7, 7 [4 of 6 alive], 8 [6 of 7 alive], 14, 15 [5 of 6 alive], 22 [5 of 6 alive], 24, 36, 44, 47 [5 of 6 alive], 56, 67 % of control [5 of 7 alive]
survivor count [7]: 3 of 6
T/C [8]: 1 [4 of 6 alive], 2 [6 of 7 alive], 3 [4 of 6 alive], 4, 4 [4 of 6 alive], 7 [5 of 6 alive], 19, 30, 40 % of control [5 of 6 alive]
survivor count [8]: 3 of 6
T/C [9]: 1 [6 of 7 alive], 6 [6 of 7 alive], 10 % of control [5 of 6 alive]
survivor count [9]: 1 of 6, 2 of 6, 3 of 6
survivor count [1]: 2 of 6

CC(=O)OCC(=O)[C@@]1(O)CC[C@H]2[C@@H]3C[C@H](C)C4=CC(=O)C=C[C@]4(C)[C@H]3[C@@H](O)C[C@@]21C
survivor count (dose: 40.0 mg/kg/injection, schedule: Q01DX007 (sc), vehicle: steroid suspending solution): 3 of 6
survivor count (dose: 150.0 mg/kg/injection, schedule: Q01DX007 (sc), vehicle: steroid suspending solution): 2 of 6

Nc1ncnc2c1ccn2C1OC(CO)C(O)C1O (centres undefined)
survivor count (dose: 1.25 mg/kg/injection, schedule: Q#A X014 (ip), vehicle: carboxymethylcellulose (CMC)): 3 of 6

O=C1C=CC2(CCC23C=CC(=O)O3)O1 (centres undefined)
survivor count (dose: 65.0 mg/kg/injection, schedule: Q01DX007 (ip), vehicle: saline): 3 of 6
survivor count (dose: 95.0 mg/kg/injection, schedule: Q01DX007 (ip), vehicle: saline): 2 of 6
survivor count (dose: 145.0 mg/kg/injection, schedule: Q01DX007 (ip), vehicle: saline): 0 of 6

C=C(C)C(=O)OCC1CO1 (centres undefined)
T/C (dose: 300.0 mg/kg/injection, schedule: Q01DX007 (ip), vehicle: other): 125 % of control

CN(N=O)C(=O)Nc1c[nH]c(=O)[nH]c1=O
survivor count [6]: 1 of 6

CC1=C2C(=CC(C)(C)[C@@H]2O)C(=O)[C@](C)(O)C12CC2
survivor count (dose: 0.6 mg/kg/injection, schedule: Q01DX007 (ip), vehicle: saline): 2 of 6

O=C(CCN1CC1)OCCOC(=O)CCN1CC1
survivor count (dose: 13.5 mg/kg/injection, schedule: Q#A X014 (ip), vehicle: methylcellulose (MC)): 3 of 6

COc1cc2c(c(OC3OC(CO)C(O)C(O)C3O)c1)C(=O)CC(c1ccc(O)cc1)O2 (centres undefined)
survivor count (dose: 400.0 mg/kg/injection, schedule: Q01DX007 (ip), vehicle: other): 0 of 6

COC(=O)C1=CO[C@@H](C)[C@@H]2Cn3ccc4c5ccccc5nc-4c3C[C@H]12
survivor count (dose: 200.0 mg/kg/injection, schedule: Q01DX007 (ip), vehicle: other): 0 of 6
